Primary screen of a compound library

By UniProt entry, the sequences of proteins in these tests, tags left out. Residues count along the entry.
UniProt Q8IDJ8, 1-583: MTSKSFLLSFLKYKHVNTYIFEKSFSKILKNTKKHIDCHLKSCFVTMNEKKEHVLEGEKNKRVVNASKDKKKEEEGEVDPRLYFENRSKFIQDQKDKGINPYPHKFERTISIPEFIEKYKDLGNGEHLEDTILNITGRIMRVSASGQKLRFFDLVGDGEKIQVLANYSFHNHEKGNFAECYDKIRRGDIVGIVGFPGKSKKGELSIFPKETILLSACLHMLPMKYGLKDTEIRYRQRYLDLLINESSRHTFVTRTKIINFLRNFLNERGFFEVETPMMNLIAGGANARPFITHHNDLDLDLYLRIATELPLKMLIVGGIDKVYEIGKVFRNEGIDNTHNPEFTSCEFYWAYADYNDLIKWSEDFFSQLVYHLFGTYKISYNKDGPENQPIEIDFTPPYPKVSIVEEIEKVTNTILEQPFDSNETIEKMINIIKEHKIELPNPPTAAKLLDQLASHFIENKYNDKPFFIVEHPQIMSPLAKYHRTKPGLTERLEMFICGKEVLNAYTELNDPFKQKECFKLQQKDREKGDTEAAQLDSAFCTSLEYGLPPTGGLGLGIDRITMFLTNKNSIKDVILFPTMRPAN
UniProt A4I591, 1-473: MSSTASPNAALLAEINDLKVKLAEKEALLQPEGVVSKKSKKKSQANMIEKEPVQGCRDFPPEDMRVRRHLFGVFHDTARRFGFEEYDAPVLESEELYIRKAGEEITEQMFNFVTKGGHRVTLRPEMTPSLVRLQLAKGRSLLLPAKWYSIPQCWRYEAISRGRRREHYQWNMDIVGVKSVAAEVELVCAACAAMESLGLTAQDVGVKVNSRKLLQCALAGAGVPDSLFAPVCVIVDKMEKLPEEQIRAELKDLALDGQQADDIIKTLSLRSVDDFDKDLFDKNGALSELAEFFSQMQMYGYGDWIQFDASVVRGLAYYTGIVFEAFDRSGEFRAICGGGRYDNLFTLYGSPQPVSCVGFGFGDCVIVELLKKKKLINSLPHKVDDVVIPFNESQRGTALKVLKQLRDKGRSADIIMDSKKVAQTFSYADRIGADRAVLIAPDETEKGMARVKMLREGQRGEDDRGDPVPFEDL

Measurements from “University of Dundee, Small-Polar-MMV Screening Library” (2021), ChEMBL document CHEMBL3988442.

A: 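Cell assay of Leishmania donovani living inside macrophages; the read-out is not stated. Concentration: 30 µM. The record gives no direction; compounds that gave an IC50 in retests scored well above the rest, so higher reads as stronger inhibition. Size under these conditions: about 69,000 compounds, about 1,000 of them at 50% or above in at least one test.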
B: 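Lysine-tRNA ligase, Plasmodium falciparum 3D7 (UniProt Q8IDJ8). Enzyme assay of the cytosolic lysyl-tRNA synthetase in 384-well plates, read by luminescence. Compounds at 30 µM. Higher reads as stronger inhibition, judged from the few compounds that gave an IC50. Size under these conditions: about 69,000 compounds, about 49 of them at 50% or above in at least one test.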
C: 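Histidine-tRNA ligase, Leishmania infantum (UniProt A4I591). Enzyme assay of histidyl-tRNA synthetase; the read-out is not stated. Compounds at 30 µM. Direction is inferred from retests: higher values go with stronger inhibition. The assay is labelled LdHisRS but filed under L. infantum. About 69,000 compounds were tested under these conditions; 0.6% (about 410) showed 50% or more at least once.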

Values are the deposited “Percent Effect”, in %. The record does not define 0% and 100%; most values in the screen are far below 50% and negative numbers occur (in some assays of this library far below -100). The compounds are a random part of those screened. Two or more numbers in one place are separate tests of the same structure; such repeats can differ widely. A dash means the value is not listed here; it may have been measured.

Compound	A	B	C
CC1CCCCN1CCNC(=O)c1ccn(-c2ccccc2)n1 (stereo not shown)	12.89%	-4.185%	2.632%
O=C(O)C(F)(F)F.O=C(O)C(F)(F)F.O=C(O)C(F)(F)F.c1cc(CN2CCOCC3(CCN(CC4CCOCC4)CC3)C2)ccn1	41.83%	-	-
CS(=O)(=O)NCC1CCCN(C(=O)c2ccco2)C1 (stereo not shown)	16.57%	0.7411%	11.4%
CN1CCCN(C(=O)c2nc3c(n2C)CCN(c2ncccn2)C3)CC1	-0.2293%	7.488%	13.79%
O=C(NCc1ccco1)c1[nH]nc2c1CS(=O)(=O)CC2	15.7%	5.733%	8.929%
COc1c(C2CCCN2C(=O)c2cccc(C(N)=O)c2)c(C)nn1C (stereo not shown)	-16.68%	-1.939%	-2.667%
O=C(COc1coc(CN2CCCCC2)cc1=O)c1ccccc1	-4.137% & 8.726%	2.786%	5.263%
CN1CCCc2cc(-c3cncn3CCNC3CCS(=O)(=O)C3)ccc21 (stereo not shown)	-	3.821%	26.76%
Cc1csc(CCNC(=O)c2ccc(N(C)C)c(F)c2)n1	-1.836%	5.424%	9.244%
CCCc1n[nH]c(C2CN(C(=O)c3cc(C4CC4)on3)CCO2)n1 (stereo not shown)	11.7%	3.467%	8.219%
O=C(O)C(F)(F)F.[H][C@@]12COC[C@]1(CN(C)C)CN(C(=O)Cc1ccccc1C)C2	19.68%	-	-
Cc1nsc(NC(=O)NC2(CN3CCOCC3)CCCCC2)n1	2.064%	1.968%	19.15%
[H][C@@]12CCN(Cc3scnc3C)C[C@]1(C(=O)N1CCCO1)CCO2	8.792% & 17.99%	-	-
COCCCn1ccc(NC(=O)NCc2cccc(N(C)C)c2)n1	27.67%	5.323%	5.208%
CN1CCN([C@H]2COC[C@@H]3CN(Cc4cccnc4)C[C@@H]32)CC1	-	0.8665%	17%
CCc1nccn1-c1cncc(C2CCCN2)n1 (stereo not shown)	-	0.1287%	19.86%
CCN1CCC(N2CCN(c3cc(-c4nc(C)no4)ccn3)CC2)CC1	-16.6%	21.55%	9.917%
Cc1c(C(=O)N[C@H]2CN(CCS(C)(=O)=O)C[C@@H]2C2CC2)cnn1C	15.18%	3.857%	11.83%
Cc1cc(CNc2cc(-c3ccoc3C)nn2CCO)c(C)o1	-6.211%	-2.815%	3.968%
CC(=O)N1CCC(Cc2cnc(C(=O)N3CCCC3)cn2)C1 (stereo not shown)	-5.476%	1.072%	4%
COCCn1cncc1CN1CCCC(C(=O)Cc2ccccc2)C1 (stereo not shown)	37.64%	11.07%	14.75%
Cn1ncc2c1NC(=O)CC2c1ccc(F)cc1 (stereo not shown)	48.05%	2.235%	12.39%
Cc1cnc(N2CCCC3(CCOCC3)C2)nc1	39.41%	3.545%	9.574%
CCOc1ncccc1C(=O)Nc1c(C)cnn1CC1CC1	13.96%	5.169%	14.52%
COc1ncccc1NC(=O)C1CCN(S(C)(=O)=O)CC1	30.1%	0.2666%	19.18%
CCC[C@@H]1CN(Cc2c[nH]nc2-c2ccc(F)cc2)C[C@H]1NS(C)(=O)=O	-16.38%	2.338%	8.197%
O=C1NCC(C(=O)N(Cc2ccc(C(F)(F)F)cc2)C2CC2)N1 (stereo not shown)	-4.587%	2.598%	4.839%
[H][C@@]12C[C@H](C(=O)Nc3cccnc3)[C@@]([H])(CN(Cc3ccc(OC)cc3)C1)O2	33.67%	-	-
Cn1c(C(F)(F)F)nn(CCNC(=O)c2ccccn2)c1=O	40.04%	3.275%	8.264%
COc1ccc(CSc2nnc(N)n2C2CC2)cc1Cl	7.972%	6.352%	24.05%
O=C(c1ccc2c(c1)CCC2)N1CCCCC1C1OCCO1 (stereo not shown)	-9.517%	8.543%	11.4%
CN(C)c1cccc(C(=O)N2CCCSCC2CN2CCCC2)c1 (stereo not shown)	-3.291%	2.16%	15.07%
CN(C)CCOCC1CN(C(=O)c2ccsc2)Cc2ccnn2C1 (stereo not shown)	-	7.704%	11.43%
CC(C)c1noc(CCC(=O)N2CCN(C)CC2c2ccccc2)n1 (stereo not shown)	-16.24%	3.647%	13.19%
O=C(c1ccc2c(c1)COC2)N1CCCC(n2cncn2)C1 (stereo not shown)	30.58%	0.5875%	16.96%
O=C(c1cccn1Cc1cccs1)N1CCCC1Cn1cccn1 (stereo not shown)	17.18%	-1.46%	16.67%
O=C(c1ccc(F)cc1)N1CCOC(c2nc(-c3ncccn3)no2)C1 (stereo not shown)	2.045% & 14.31%	3.465%	16.49%
Cc1nc(NCc2ccc(C)o2)cc(C(=O)N2CCOCC2)n1	16.12%	5.691%	14.15%
COCCOCC(=O)N(Cc1cccc(C)c1)C(C)C	11.11%	6.41%	16.42%
CSc1ccccc1NC(=O)CCN1CCC(C(=O)N(C)C)CC1	3.215%	1.146%	30.3%

4 of the entries, repeated:

Compound	A	B	C
CCc1nccn1-c1cncc(C2CCCN2)n1 (stereo not shown)	-	0.1287%	19.86%
CCOc1ncccc1C(=O)Nc1c(C)cnn1CC1CC1	13.96%	5.169%	14.52%
Cc1cnc(N2CCCC3(CCOCC3)C2)nc1	39.41%	3.545%	9.574%
O=C(COc1coc(CN2CCCCC2)cc1=O)c1ccccc1	-4.137% & 8.726%	2.786%	5.263%